## Library screening results

Source: ChEMBL document CHEMBL3988442, “University of Dundee, Small-Polar-MMV Screening Library” (2021).

A: 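Whole-cell assay for inhibitors of Mycobacterium tuberculosis growth, labelled Cornell in the record; the read-out is not stated. The concentration is filed as 10 mM, unlikely as a test dose, so the dose is not known. The record gives no direction; compounds strong in two other growth screens of this library score well above the rest, so higher reads as stronger inhibition. Of about 53,000 compounds tested this way, about 900 (1.7%) reached 50% or more in at least one test.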
B: 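Assay on Mycobacterium tuberculosis, filed only as a heat shock assay from Cornell; the read-out is not stated. The concentration is filed as 10 mM, unlikely as a test dose, so the dose is not known. Higher reads as stronger inhibition (inferred: compounds with an IC50 in retests scored well above the rest). About 69,000 compounds were tested under these conditions; 1.4% (about 930) showed 50% or more at least once.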

Each number is a percent effect as filed.
The controls that fix the scale are not given in the record; negative values are as filed.
Compounds were drawn at random from those tested, without regard to their results.

With Cc1n[nH]c(SCC(=O)NC(c2ccncc2)C(C)C)n1 (stereo not drawn) the screen gave A: -31.3%; B: -0.5049%. Result for CCc1ccc(NS(=O)(=O)c2cc3c(c(C(=O)O)c2)OCCO3)cc1 was A: -0.4226%; B: -5.052%. For Cc1nc2cc(=O)[nH]n2c(C)c1CC(=O)NCc1ccc(C#N)cc1 the result was B: -5.012%. With CCCc1noc(C(C)N2CC(n3cccn3)C2)n1 (stereo not drawn) the screen gave A: -51.05%; B: -13.28%. For O=C(O)C(F)(F)F.[H][C@@]12CN(Cc3c[nH]cn3)C[C@]1([H])OCCN2c1cnccn1 the result was A: 17.88%; B: 3.581%. Result for CCSc1ccc(NC(=O)N2CCCC2c2ccncc2)cn1 (stereo not drawn) was A: -13.41%; B: -1.508%. For CCOCCN1CCN(CC(O)c2cc(Cl)ccc2Cl)CC1 (stereo not drawn) the result was A: -15.68%; B: -9.851%.

With CN(C)C(=O)CN1CCCC1c1nc(N)ncc1-c1ccc(F)cc1 (stereo not drawn) the screen gave A: -18.61%; B: -17.89%. With Cc1noc(-c2cccnc2N(C)Cc2ccc([S+](C)[O-])cc2)n1 (stereo not drawn) the screen gave B: -6.559%. OCCN1CCN(Cc2coc(-c3cccc(F)c3)n2)CC1 gave A: 3.621%; B: -8.546%. For CC(C)NC(=O)N1CCN(S(=O)(=O)C2CC2)CC2(CNC(=O)C2)C1 (stereo not drawn) the result was A: 10.61%; B: 11.2%. With CCc1ccccc1C(=O)N1CCN(S(C)(=O)=O)[C@@H](C)C1 the screen gave A: 6.299%; B: 4.142%. With O=C(O)C(F)(F)F.O=C(O)C(F)(F)F.[H][C@@]12CCCO[C@]1([H])[C@H](N(C)Cc1cccnc1)CN2C(=O)c1ccno1 the screen gave A: 22.89%; B: 0.2387%. With [H][C@]12CCN(S(=O)(=O)Cc3ccccc3)[C@@]1([H])CC[C@H](COC)O2 the screen gave A: -19.82%; B: 6.325%.

Result for O=C(Cc1csc(N2CCNC2=O)n1)NCC1(c2ccccc2)CC1 was A: -22.68%; B: -10.95%. [H][C@@]12CNC[C@@]1([H])N(CC1CC1)C(=O)CO2 gave A: -10.9%; B: 4.858%. CC(C)(C)c1nnc(CN2CCCC(c3cc(C(N)=O)[nH]n3)C2)o1 (stereo not drawn) read A: -28.8%; B: 4.76%. Result for Cc1ccc(CN2CCN(c3ncnc4[nH]cnc34)CC2CCO)cc1 (stereo not drawn) was A: 5.793%; B: -8.492%. With CN(CCn1nc2ccccn2c1=O)CC(=O)N1CCCC1 the screen gave A: 32.2%; B: 3.016%. For COCC1CN(C(=O)Cc2cccs2)Cc2nnn(CC3CC3)c21 (stereo not drawn) the result was A: -18.68%; B: -31.31%. Result for CCC(CNC(=O)c1cccc(S(=O)(=O)NC)c1)N1CCCC1 (stereo not drawn) was A: -41.56%; B: 4.306%.

With N#Cc1cccc(SCCS(N)(=O)=O)c1 the screen gave A: -27.35%; B: 5.93%. Result for CN1CCN([C@@H]2CN(C(=O)c3cc4ccc(F)cc4[nH]3)C[C@H]2O)CC1 was A: 47.36%; B: -7.259%. CC(CNS(=O)(=O)c1cccc(Cl)c1)N1CCN(C)CC1 (stereo not drawn) read B: -3.48%. Result for COCCNC(=O)N1CCN(C(=O)Cc2ccccc2F)CC1 was A: 0.1974%; B: -2.184%. Result for CNC(=O)c1csc(-c2cccnc2)n1 was A: -13.33%; B: 4.818%. Result for O=C(COCc1ccccc1)N1CCCC(n2cncn2)C1 (stereo not drawn) was A: 4.829%; B: 8.661%. COC(=O)c1cccc(S(=O)(=O)NC(=O)COC2CCCCC2)c1 gave A: -6.212%; B: -12.87%.

CCOCCCn1c(NC(=O)c2scnc2C)nc2ccccc21 read A: 74.98%; B: 84.26%.

The first 2 entries again:

{"smiles": "Cc1n[nH]c(SCC(=O)NC(c2ccncc2)C(C)C)n1", "stereo": "stereo not drawn", "A": -31.3, "B": -0.5049}
{"smiles": "CCc1ccc(NS(=O)(=O)c2cc3c(c(C(=O)O)c2)OCCO3)cc1", "A": -0.4226, "B": -5.052}